From paper PMC8882189, “Identification of Nanog as a novel inhibitor of Rad51” (Cell Death & Disease, 2022)
No constants are given. Whether binding was seen depends on the method and setting. In cells and extracts the contact can be indirect. Some results given as binding are weak or reduced against the parent protein; the word gives no strength.

Amino acid sequences for entries named in this document (tags omitted).
UniProt Q08297: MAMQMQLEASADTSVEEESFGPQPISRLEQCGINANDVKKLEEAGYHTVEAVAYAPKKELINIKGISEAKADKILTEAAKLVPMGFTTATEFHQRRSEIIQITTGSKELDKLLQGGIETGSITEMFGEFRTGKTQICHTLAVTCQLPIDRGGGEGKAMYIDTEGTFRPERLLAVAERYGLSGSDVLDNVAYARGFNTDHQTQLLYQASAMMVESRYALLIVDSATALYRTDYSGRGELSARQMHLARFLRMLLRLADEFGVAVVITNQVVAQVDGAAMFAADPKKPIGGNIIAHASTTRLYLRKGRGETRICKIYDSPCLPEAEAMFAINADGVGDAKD

Molecular target: T1, Nanog (endogenous, mouse ES cells) (mouse (endogenous in mouse ES cells)) (UniProt Q80Z64)
T1 sequence: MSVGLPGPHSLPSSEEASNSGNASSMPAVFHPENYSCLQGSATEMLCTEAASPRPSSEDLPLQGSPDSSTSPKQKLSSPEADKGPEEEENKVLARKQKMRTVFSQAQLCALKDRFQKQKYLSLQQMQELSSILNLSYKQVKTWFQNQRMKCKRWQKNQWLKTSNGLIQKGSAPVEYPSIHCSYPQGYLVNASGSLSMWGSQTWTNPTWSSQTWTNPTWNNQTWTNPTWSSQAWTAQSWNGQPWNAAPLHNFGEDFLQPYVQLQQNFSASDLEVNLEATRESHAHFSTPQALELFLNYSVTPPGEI
Test: co-IP; mouse ES cell whole cell extracts; IP with the antibody against Nanog or Rad51, western blot for Rad51 and Nanog respectively; Protein-G beads, 4 °C overnight, NP40 lysis buffer washes

- binding: binds
Substance: Rad51 (endogenous, mouse ES cells) (from UniProt Q08297 1-339)
